# Results as given in BindingDB's records for doi:10.1176/jnp.8.2.223 (1996).
# The chains behind the UniProt entries cited, without tags or fusion partners.
# UniProt Q95136, whole entry: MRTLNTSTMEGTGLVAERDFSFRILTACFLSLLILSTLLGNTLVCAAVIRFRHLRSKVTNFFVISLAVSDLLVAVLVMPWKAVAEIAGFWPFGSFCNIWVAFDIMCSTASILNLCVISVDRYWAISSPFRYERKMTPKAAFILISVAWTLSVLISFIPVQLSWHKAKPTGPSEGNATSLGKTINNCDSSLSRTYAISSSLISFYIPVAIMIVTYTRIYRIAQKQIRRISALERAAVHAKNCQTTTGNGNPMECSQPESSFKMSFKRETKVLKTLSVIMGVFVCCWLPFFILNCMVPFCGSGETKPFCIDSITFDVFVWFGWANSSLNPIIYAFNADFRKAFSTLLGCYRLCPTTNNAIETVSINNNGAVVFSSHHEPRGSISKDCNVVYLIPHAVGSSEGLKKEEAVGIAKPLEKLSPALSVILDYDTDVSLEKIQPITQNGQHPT
# Where a name gives a salt, the structure may show the parent alone.
# Biological target: D(1A) dopamine receptor (Bos taurus, UniProt Q95136)
structure (smiles),measurement,value
OCCN1CCN(CCCN2c3ccccc3Sc3ccc(C(F)(F)F)cc32)CC1 [2-[4-[3-[2-(trifluoromethyl)phenothiazin-10-yl]propyl]piperazin-1-yl]ethanol;hydrochloride],Ki,180 nM
